Laboratory results published in PubChem BioAssay AID1487 (National Center for Advancing Translational Sciences (NCATS), 2009).
Values joined by “and” are separate entries in the source; they are usually repeats but may differ in a detail not shown here. Equal values may be shown once. Some of the results follow. Further columns of the screen follow, without active or inactive calls. Compounds called inactive in the main read-out are mostly missing here. Words in brackets tell the shape of the fitted curve; partial curves, single points and poor fits give uncertain potencies.

Test: qHTS Assay for Modulators of Lamin A Splicing
Conditions: HeLa LMNA splicing GFP/RFP minigene ratio, 48 h
In short: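 S3 HeLa stable clones carrying a lamin A-EGFP splicing minigene plus DsRed2 were seeded at 600 cells/well in Opti-MEM with 2% FBS, pin-dosed and incubated 48 h at 37°C. Acumen cytometry (488 nm) gave the GFP/RFP total-intensity ratio.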

[1] = measured here: RFP viability control channel
[2] = measured here: GFP splicing reporter channel

Row | SMILES | AC50 [1] | AC50 [2]
1 | COc1ccc(NC(=O)CCn2nnc(-c3ccc(C)cc3)n2)cc1OC | 22.4 µM [rising, single point] | 
2 | O=C(Nc1cccc(N=Cc2cc(Br)cc(Br)c2O)c1)c1ccco1 | 14.1 µM [rising, single point] | 
3 | CS(=O)(=O)c1nc(-c2cccs2)cc(C(F)(F)F)n1 | 15.8 µM [falling, partial curve, poor fit] | 
4 | O=C(c1ccc2ncsc2c1)N1CCN(c2ccc(O)cc2)CC1 |  | 11.2 µM [falling, partial curve]
5 | CC1CN(C(=O)N2c3ccccc3Sc3ccccc32)C(C)CC1=O (stereo not given) | 22.4 µM [rising, single point] | 
6 | Cn1c(N/N=C/c2c[nH]c3ccccc23)nc2ccccc21 |  | 20 µM [falling, single point]
7 | CC(C)Cn1c(N)c(C(=O)COC(=O)C2CCCCC2)c(=O)n(C)c1=O | 15.8 µM [rising, single point] | 14.1 µM [rising, single point]
8 | CC(C)CNS(=O)(=O)c1ccc(C(=O)Nc2ccc3c(c2)OCCO3)cc1 | 12.6 µM [rising, single point] | 10 µM [rising, partial curve]
9 | CCCN(CCC)S(=O)(=O)c1ccc2c(c1)CCCN2C(C)=O | 31.6 µM [rising, single point] | 17.8 µM [rising, partial curve, poor fit]
10 | CSC1=C(C#N)C(c2ccccc2)C(C(C)=O)=C(C)N1 (stereo not given) |  | 10 µM [rising, partial curve, poor fit]
11 | Nc1c(Cl)c(Cl)nc(C(=O)N/N=C/c2cccnc2)c1Cl |  | 6.31 µM [rising, single point]
12 | CCCCn1nc(NC(=O)c2cccs2)c2cc3ccccc3nc21 | 35.5 µM [rising, single point] | 
13 | C[C@H]1NC(=O)NC1=O |  | 0.891 nM [falling, full curve, poor fit] and 14.1 µM [falling, partial curve, poor fit]
14 | Cc1cccc(-n2ccnc2SCC(=O)Nc2nccs2)c1C | 17.8 µM [rising, single point] | 12.6 µM [rising, single point]
15 | CC1(C)CCCC2=C1CC1C(=O)N(c3ccccc3)C(=O)C1C2 (stereo not given) |  | 14.1 µM [rising, single point]
16 | N#Cc1c(NC(=O)CSc2ncn(-c3ccccc3)n2)sc2c1CCCC2 | 31.6 µM [rising, single point] | 
17 | Cc1cc(/C=N/n2cnnc2)c(C)n1-c1ccc(OCc2ccc(Cl)cc2Cl)cc1 |  | 3.55 µM [rising, full curve, poor fit]
18 | CC(=O)c1cc2c(cc1NC(=O)c1cc(C)nn1-c1ccccc1)OCO2 | 3.16 µM [rising, partial curve, poor fit] | 
19 | COCc1cc(Sc2ccc(Cl)cc2)nc(-c2ccccc2)n1 | 22.4 µM [rising, single point] | 15.8 µM [rising, single point]

Sorted by molecular weight (rising): 11 of the compounds above
Row | SMILES | AC50 [1] | AC50 [2]
13 | C[C@H]1NC(=O)NC1=O |  | 0.891 nM [falling, full curve, poor fit] and 14.1 µM [falling, partial curve, poor fit]
10 | CSC1=C(C#N)C(c2ccccc2)C(C(C)=O)=C(C)N1 (stereo not given) |  | 10 µM [rising, partial curve, poor fit]
9 | CCCN(CCC)S(=O)(=O)c1ccc2c(c1)CCCN2C(C)=O | 31.6 µM [rising, single point] | 17.8 µM [rising, partial curve, poor fit]
4 | O=C(c1ccc2ncsc2c1)N1CCN(c2ccc(O)cc2)CC1 |  | 11.2 µM [falling, partial curve]
19 | COCc1cc(Sc2ccc(Cl)cc2)nc(-c2ccccc2)n1 | 22.4 µM [rising, single point] | 15.8 µM [rising, single point]
11 | Nc1c(Cl)c(Cl)nc(C(=O)N/N=C/c2cccnc2)c1Cl |  | 6.31 µM [rising, single point]
5 | CC1CN(C(=O)N2c3ccccc3Sc3ccccc32)C(C)CC1=O (stereo not given) | 22.4 µM [rising, single point] | 
18 | CC(=O)c1cc2c(cc1NC(=O)c1cc(C)nn1-c1ccccc1)OCO2 | 3.16 µM [rising, partial curve, poor fit] | 
7 | CC(C)Cn1c(N)c(C(=O)COC(=O)C2CCCCC2)c(=O)n(C)c1=O | 15.8 µM [rising, single point] | 14.1 µM [rising, single point]
8 | CC(C)CNS(=O)(=O)c1ccc(C(=O)Nc2ccc3c(c2)OCCO3)cc1 | 12.6 µM [rising, single point] | 10 µM [rising, partial curve]
17 | Cc1cc(/C=N/n2cnnc2)c(C)n1-c1ccc(OCc2ccc(Cl)cc2Cl)cc1 |  | 3.55 µM [rising, full curve, poor fit]

The list continues:

Row | SMILES | AC50 [1] | AC50 [2]
20 | Cn1c(CCN2CCCCC2)nc2cc(NS(=O)(=O)c3ccc(Cl)cc3)ccc21 |  | 35.5 µM [falling, single point]
21 | O=C(COc1ccc(-n2cnnn2)cc1)NCCc1ccc(F)cc1 | 0.447 µM [rising, partial curve, poor fit] | 
22 | NC(=O)OCC(COC(N)=O)c1ccccc1 |  | 0.00631 µM [falling, full curve, poor fit]
23 | COc1cc(/C=C2/SC(=Nc3ccc(O)cc3)NC2=O)ccc1O | 11.2 µM [falling, partial curve, poor fit] | 
24 | Cn1nccc1C(=O)NCc1ccc2c(c1)CCN2C(=O)c1ccccc1 |  | 1 µM [falling, full curve, poor fit]
25 | CN(Cc1ccccc1)Cc1nc2c(c(=O)n(C)c(=O)n2C)n1Cc1ccc(F)cc1 |  | 0.316 µM [rising, partial curve, poor fit]
26 | CC1CCCN(CCCNC(=O)CN2C(=O)CSc3ccc(S(=O)(=O)N4CCOCC4)cc32)C1 (stereo not given) |  | 0.0126 µM [falling, full curve, poor fit]
27 | C[C@@H](C(=O)O)c1ccc(C(=O)c2ccccc2)s1 |  | 0.002 µM [falling, full curve, poor fit]
28 | O=C(Nc1cc(C(F)(F)F)ccc1Cl)c1ccc(NC(=O)C(F)(F)F)cc1 | 0.00794 µM [rising, full curve, poor fit] | 
29 | O=C(CSCc1ccc(Cl)cc1Cl)Nc1ccccc1C(=O)Nc1ccc(C(=O)O)cc1 |  | 2.51 µM [falling, full curve, poor fit]
30 | Cc1ccc(C)c(NC(=S)N/N=C2/CCCCc3ccccc32)c1 | 35.5 µM [rising, single point] | 
31 | Cc1[nH]c2ccccc2c1C(c1ccncc1)N1CCN(c2ccc(F)cc2)CC1 (stereo not given) | 35.5 µM [rising, single point] | 
32 | Cc1ccc(NC(=O)Nc2ccc(F)c(Cl)c2)cc1 | 35.5 µM [rising, partial curve] | 
33 | CCN(Cc1ccccc1)C(c1ccc(Cl)cc1)c1nnnn1C(C)(C)C (stereo not given) | 3.55 µM [falling, single point] | 
34 | Cc1ccc(C(c2sc3nc(-c4ccco4)nn3c2O)N2CCN(Cc3ccccc3)CC2)cc1 (stereo not given) | 0.282 µM [falling, partial curve] | 
35 | O=C(OCC(=O)N1CCCCCC1)c1ccc([N+](=O)[O-])cc1Cl |  | 0.0178 µM [falling, full curve, poor fit]
36 | COc1ccc(NC(=O)CCN2CCN(S(=O)(=O)c3ccc(OC)cc3)CC2)cc1 |  | 12.6 µM [rising, partial curve, poor fit]
37 | Cc1ccc(-c2noc(CCC(=O)N3CCCC3)n2)cc1 | 35.5 µM [rising, single point] | 22.4 µM [rising, single point]
38 | COc1ccc(N(Cc2cc3ccccc3[nH]c2=O)S(C)(=O)=O)cc1 | 11.2 µM [rising, single point] | 

Row | SMILES | AC50 [1] | AC50 [2]
39 | CCOc1cc(C(=S)N2CCOCC2)ccc1OS(=O)(=O)c1ccccc1[N+](=O)[O-] | 12.6 µM [rising, partial curve] | 5.01 µM [rising, partial curve]
40 | Cc1ccccc1NC(=O)CSc1nc(N)c2c3c(sc2n1)CSC(C)(C)C3 | 15.8 µM [rising, partial curve, poor fit] | 
41 | COc1ccc(NC(=O)CCn2cccn2)cc1OC |  | 3.98 µM [rising, full curve, poor fit]
42 | COc1ccc(/C=c2\s/c(=C/C(=O)c3ccc(C)cc3)[nH]c2=O)c(OC)c1 | 17.8 µM [rising, partial curve] | 
43 | Cc1cccc(C(=O)Nc2ccccc2SCc2cc(=O)c3cccc(C)c3[nH]2)c1 | 8.91 µM [rising, partial curve] | 0.0501 µM [rising, full curve, poor fit]
44 | CN1CCN(c2ccc(S(=O)(=O)Nc3ccccc3)cc2[N+](=O)[O-])CC1 | 14.1 µM [rising, partial curve] | 12.6 µM [rising, single point]
45 | Cc1ccc(N(C)C(=O)C2CCCN(c3ncnc4c3nc3n4CCCCC3)C2)cc1C (stereo not given) |  | 39.8 µM [falling, partial curve, poor fit]
46 | COc1ccc(N(C(=O)CS(=O)CC(=O)Nc2ccc(F)cc2)C(C(=O)NC2CCCCC2)c2cccs2)cc1 (stereo not given) | 15.8 µM [rising, single point] | 17.8 µM [rising, single point]
47 | CCCCn1c(SCC(=O)Nc2cc(C(F)(F)F)ccc2Cl)nnc1C(CC)N(C)C (stereo not given) | 35.5 µM [rising, single point] | 22.4 µM [rising, single point]
48 | COc1ccc(CC(=O)Nc2cccc(C)n2)cc1OC | 20 µM [rising, single point] | 1 µM [rising, full curve, poor fit]
49 | O=C(Cn1nc(-c2ccccc2)ccc1=O)Nc1ccc(N2CCN(C(=O)c3ccccc3)CC2)cc1 | 11.2 µM [rising, partial curve, poor fit] | 
50 | CCCCN(CCCC)CC(O)CN(c1cc([N+](=O)[O-])ccc1OC)S(=O)(=O)c1ccccc1 (stereo not given) | 14.1 µM [rising, single point] | 
51 | CC(O/N=C/c1ccccc1OC(F)F)C(=O)Nc1cccc(S(=O)(=O)N2CCOCC2)c1 (stereo not given) | 20 µM [rising, partial curve, poor fit] | 
52 | O=C(Nc1ccc(CN2CCOCC2)cc1)c1ccc(-c2ccc(Cl)cc2Cl)o1 | 12.6 µM [falling, partial curve, poor fit] | 
53 | CC(=O)c1ccc(NC(=S)NCCCN2CCOCC2)cc1 |  | 11.2 µM [rising, partial curve]
54 | C[C@@]12CC(=O)NC1N(C(=O)c1cccc(C(F)(F)F)c1)C(c1ccccc1OC(=O)c1cccc(C(F)(F)F)c1)C2 (stereo not given in full) |  | 12.6 µM [rising, single point]
55 | COc1cccc(NC(=S)N(CCc2c(C)[nH]c3ccc(C)cc23)Cc2cccs2)c1 | 14.1 µM [rising, partial curve] | 7.94 µM [rising, partial curve, poor fit]
56 | COc1ccc(-c2cnc(C)o2)cc1S(=O)(=O)Nc1ccc(C)c(N(C)C)c1 | 5.62 µM [rising, single point] | 6.31 µM [rising, single point]
